Measurements: the supplement of paper PMC3334620
Whole data set: some 33,000 sequences, median “E-score (-0.5 to 0.5)” near -0.016, cut for the highest 2% near 0.3. This is one part of the list.

The sequences below were run against T1, Yer184c (UniProt P39961) (assay: PBM E-score (8-mer binding enrichment) (E-score (-0.5 to 0.5)); higher = stronger / more preferred TF binding). Conditions: protein concentration: 100 nM; construct: GST-full length.
T1 sequence: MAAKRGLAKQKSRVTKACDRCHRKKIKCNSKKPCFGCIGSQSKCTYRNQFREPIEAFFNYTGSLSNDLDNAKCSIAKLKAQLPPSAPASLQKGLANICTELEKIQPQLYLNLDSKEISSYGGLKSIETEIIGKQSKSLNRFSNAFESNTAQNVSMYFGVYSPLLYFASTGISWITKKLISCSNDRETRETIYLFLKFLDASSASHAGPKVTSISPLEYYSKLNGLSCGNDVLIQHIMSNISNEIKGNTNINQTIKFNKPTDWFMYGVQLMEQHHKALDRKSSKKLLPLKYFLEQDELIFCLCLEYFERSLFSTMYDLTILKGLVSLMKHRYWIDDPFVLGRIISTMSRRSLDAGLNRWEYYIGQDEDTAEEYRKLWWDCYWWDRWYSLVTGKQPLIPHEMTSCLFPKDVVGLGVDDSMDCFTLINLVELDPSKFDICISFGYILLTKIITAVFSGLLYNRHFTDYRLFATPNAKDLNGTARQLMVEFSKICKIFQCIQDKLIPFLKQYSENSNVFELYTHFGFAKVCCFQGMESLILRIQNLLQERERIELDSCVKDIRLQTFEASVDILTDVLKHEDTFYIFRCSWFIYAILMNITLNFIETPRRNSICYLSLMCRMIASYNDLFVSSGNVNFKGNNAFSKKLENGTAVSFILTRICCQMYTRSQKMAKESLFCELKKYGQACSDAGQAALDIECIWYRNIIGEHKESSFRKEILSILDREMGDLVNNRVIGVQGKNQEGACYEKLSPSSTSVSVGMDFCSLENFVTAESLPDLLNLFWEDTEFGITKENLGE
Summary of the method: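 Yeast transcription factors carrying a GST tag, as full-length proteins or DNA-binding domains, were produced by PURExpress in vitro transcription/translation. About 100-200 nM protein was applied to universal all-10-mer Agilent arrays, double-stranded by primer extension on fresh or once-stripped slides. Bound protein was detected with fluorescent anti-GST, and scans were normalised with masliner. The Universal PBM Analysis Suite gave each ungapped eight-base word, pooled with its reverse complement, an E-score, a modified Wilcoxon-Mann-Whitney statistic.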

Sequence	PBM E-score
CGCCAAAC	-0.0605
GAACCTAA	0.0783
GGAGGGAA	-0.112
CAGACAGG	-0.15
GGCGATCA	-0.117
CCTATACC	-0.213
AGATTGGA	-0.0327
CTCGCCCA	-0.128
CATTGCAA	-0.0846
TAAAGCAA	0.067
AATGCCGT	0.304
AGGACGAA	0.189
CATGAGCC	-0.184
AATCACTA	0.0701
ATTGGGGA	-0.291
CGCAGTAG	-0.13
CTAGTGAC	-0.034
AGCCTTCA	0.0123
TGCAGCCA	-0.181
AATTGCCA	-0.0138
CCATAGCG	-0.124
ATTGTCCG	0.345
CGCATCGA	-0.0801
AACACCTC	-0.197
AGCCAGCT	-0.0655

Sequence	PBM E-score
TATCACCA	-0.0574
GGTACAAA	0.054
CTCGATGA	-0.0127
CTAGAGGC	-0.223
CCGTCTCG	0.159
GTGCCGGA	0.305
GCTTAACC	-0.0768
AACCACTA	-0.127
GGACGGGA	-0.0652
GAGTAAGA	0.151
ATCACGGC	0.197
AGTGACGC	-0.0974
AATATGAT	0.197
GTTCCTGA	-0.215
CGCTTTTA	0.205
ACGATCGA	0.118
AGTGCAGC	0.051
CGCATAAC	-0.0147
ATTACGTC	0.0645
AACTTGCT	-0.0918
TATTCCGA	0.389
ACCTGGAG	-0.13
TACTGCAA	0.0176
CGAAACAC	0.232
GACTTCCC	-0.0878

Sequence	PBM E-score
GCTCGACA	-0.177
CAGGCCTC	-0.339
CACGATTC	0.0028
AACAAGGC	-0.1
ACACGTGG	-0.112
AGATGCTA	-0.176
AAATGCAT	0.145
ATGACAGG	-0.182
GGCATAAC	0.0601
AACATGGG	-0.0331
CTGTCGGA	0.177
ACAAGTCA	-0.147
TACAGTGA	-0.0321
ACCCTTGG	-0.329
TCCAGCCA	-0.23
AGCAAGGC	-0.145
CCAATCGC	-0.072
TGCAGGCA	-0.21
CCGAGCCA	0.219
TCAGGAAA	0.112
ATATTGGA	0.0393
AAGTGATC	0.105
CTCGGTCA	0.167
GATTACGC	0.0704
ACCCGGGG	0.0702

Sequence	PBM E-score
TAGTGGGA	-0.112
AGACAATA	0.0776
ACCGCTAA	0.0952
CATTATCA	0.0221
AGCGAAAG	-0.153
AATTTAAT	0.271
GCGAGAGC	0.0469
GCAAATGA	0.0246
AATTTGCT	0.0712
CAAATGCA	-0.0434
TAGTATGA	0.129
CGAAAGAG	0.114
GACCAACA	0.206
ATAGAAGA	0.0239
ACATAGGT	-0.138
GCATCATA	0.214
TCATAGAA	0.129
GACGATAC	-0.0374
GAAAGTAC	-0.0441
AGAGCCCC	-0.316
CCACATAC	-0.0895
ACACTTGA	-0.247
CCTACGCC	-0.297
AGAGCGAG	-0.0354
GTAGACGA	0.0625

Sequence	PBM E-score
ACACACCA	-0.218
ATCACGCC	-0.00795
GAGAACAC	-0.0879
CGCCATAA	0.13
GAACCACA	0.00592
TCGAAGCA	0.0213
ATAAGTCC	0.147
ACCCAGAT	-0.0253
GACGTGAC	-0.0956
CGGACGTC	0.189
GGAGCGAA	0.069
ATGGCATC	-0.0291
AGATTTCA	0.0496
GTATTTGA	0.0371
ATCTATTC	0.0275
TATTAAGA	0.0986
CCTGTTCC	-0.0466
CGTCGCAC	-0.00563
ACGGGATG	-0.0538
CGGTACGC	0.114
GGGCAGTA	-0.144
GGGTCACA	-0.191
AACTGCTA	-0.141
GAAAGCGA	0.066
AGCCTCTG	-0.37

Sequence	PBM E-score
GATCTAGA	-0.0186
ACATCCAT	-0.0271
AACTAAGA	0.084
CCCAAAGA	0.0166
CAGGTGTC	-0.0925
TACGGACA	0.196
AGAATGTC	-0.0589
ATCTTGTA	0.033
TACACGCA	-0.224
TAAGCCAA	0.0287
ACACAATA	0.0432
GACAGTGA	-0.0138
CTTCGATC	0.0337
TGCACACA	-0.0766
CATGGCCG	0.0582
CACAACGG	-0.0669
ATGGAAGG	-0.078
GATCCGTA	0.17
CCTTGAGC	0.018
GAACCTGC	0.0118
AAGCCGTC	0.187
ACTGTCAT	-0.0219
AGATTTAC	0.0377
AAACAGGC	-0.131
GGAGAGAA	0.0818

Sequence	PBM E-score
AAGAACAA	0.269
ATGGTACC	-0.119
ACCGCTCC	0.00452
AACAGTCA	-0.191
ACAGTCAT	-0.136
CGGTAACC	0.155
AGTGGCAC	-0.152
GTTCAAAC	0.217
ATGAAGAG	0.11
ATGACTCA	-0.0915
CTTCGAAA	0.0621
AAGTGAGG	-0.173
CAAGAATA	0.231
ATCTACGC	0.166
TGGTAGAA	0.0215
TAAAAGAA	0.177
CAGGCGGG	-0.181
CCCTACCG	-0.295
CATACTGC	0.0531
AAATCTAG	-0.156
ATGCCAAC	-0.0847
CAACGATA	0.123
AGGAGTCG	-0.257
GCGACTGA	-0.137
GTGTTAGA	0.059

Sequence	PBM E-score
CAGCACAG	-0.022
AGATCCGC	0.0835
GCTGGCAA	-0.0189
TCAGGCGA	-0.0392
ATTAGTGC	0.168
AATAGGGA	-0.238
CACAGCGG	-0.0937
GAACAATA	0.313
CCTGGATC	-0.233
ATCTTCTC	0.0325
CTGCGCAG	-0.0745
CTCACGCA	0.164
CCATGCCC	-0.108
ACTTGTTA	0.0716
ACCCGCAA	-0.125
CGAACCTA	0.111
ATTATAAC	0.104
CTGGGCCA	-0.301
CCTGCCCG	-0.0541
AGAATGTG	-0.217
GTGAGATA	0.0346
AGACTAAA	0.0357
CACGCCAG	-0.141
CCACGAAG	-0.191
ATCCGAGC	0.219

Sequence	PBM E-score
CTTTACCA	-0.253
CCGTGCCG	0.312
CGTACAAA	0.126
ACTATCTA	0.141
ATTCCGTG	0.313
CAGAAGAG	-0.142
CCGTCGCG	-0.021
AAATTTGT	0.213
GAGAAGAC	-0.0805
AGGAAGAT	0.0204
GGTGTTTA	0.0427
CCGAGAGG	0.0688
GTTCGGGA	0.226
CAGCCTCG	-0.0314
GAGCAAGA	0.052
CGCTCAAC	-0.0292
ACATTCGA	0.035
ATAATAAT	0.207
AGCAGGAT	-0.0872
ACCCCCGC	-0.114
GAACAGAC	0.18
GTTGGGAA	-0.0472
GGGATATA	0.0967
AGCCGGGC	0.172
CGTAGGAG	-0.0334

Sequence	PBM E-score
ACTGGTCC	-0.111
ATGTTTAC	0.0534
CACGTCAG	-0.318
ATAACTAA	0.14
AAACCTTG	-0.189
GGAGGTGA	0.0707
TCCATCAA	0.115
GATGCTTA	-0.0141
AGTCAACC	-0.18
GGCTGCAC	-0.0146
GGCATTAA	0.0804
AAGTATCT	0.0706
GCGCAGAA	0.0898
GACAGGCA	-0.108
ACTGAAGT	0.0383
GTGGGTAA	-0.172
ATTCGATC	0.111
CGGTGTAA	0.151
AAAGTATT	0.047
CACGCGCC	-0.00729
GGTATAGA	-0.0742
GAGCAGGC	-0.1
AGCCCCGA	-0.181
ATCATAAG	0.13
TAGGCCAA	0.0434

Copied from above (two entries):
Sequence	PBM E-score
AGCCCCGA	-0.181
ATCATAAG	0.13

Remaining list, next part

Sequence	PBM E-score
AGCACGGC	0.148
ACAGGAGT	-0.0872
GAGTCCCC	-0.342
ATCCAATC	-0.0526
ACTTAGAA	-0.0208
TACGCTGA	0.0765
GTCAGAGA	-0.0567
TTATGGAA	0.0949
ATGCAAAC	-0.14
ATTGACGA	0.114
CAGCCTGA	-0.0443
CCCATAAA	0.024
ACTTTTAC	0.283
ATCCGGAG	0.398
CGCCTGTA	-0.0648
AATAAATG	0.174
AAACAATG	0.0542
GTGGGCTA	-0.175
AGAAGTCG	-0.241
CATGTCTA	-0.134
ACATGCAT	-0.165
CCCACCGG	0.123
GTGGATGA	-0.134
AGAAATAA	0.19
GCCATAGA	-0.264

Sequence	PBM E-score
AATGGTGA	-0.0907
AATCTTAA	0.0382
CGGCGAAA	0.35
CGGGCTGA	-0.0945
AGACTTAA	0.0589
ATCAAAGC	0.149
TAGCTACA	0.0414
TAGCGAAA	0.119
ACAGCTGT	0.0316
TCACCGGA	0.294
GGAGAAAC	0.0894
CGCGGCGC	0.259
ACATAGAT	0.0877
CAAGAGAC	-0.151
ATCGCTGA	0.0467
CCCCACAC	-0.353
CCCCTTTC	-0.195
ATGTGATG	-0.143
CAAACGGA	0.267
ACACTGCG	-0.0646
CTACCTCC	-0.0708
AAGGAGGG	-0.149
AAAGTGCA	-0.0658
ACCCATAC	-0.199
ACTGCCCT	-0.155

Reprinted at random: 7 records from the list
Sequence	PBM E-score
AATCTTAA	0.0382
AAAGTGCA	-0.0658
CCCCTTTC	-0.195
CAAACGGA	0.267
TCACCGGA	0.294
ACAGCTGT	0.0316
CGGGCTGA	-0.0945

Further results.

Sequence	PBM E-score
AAAAAGGC	0.121
GACTTGTA	-0.0964
TCCAGACA	-0.14
AGCCCAGG	-0.268
CCTCCTCA	-0.206
AACTGAGT	0.112
AGACACGC	-0.0415
AATGGTAT	-0.0602
GAGACGCC	-0.0631
GTAACTCA	-0.0122
GTCATGAC	0.0772
ACCAAATG	-0.11
ACCCTAGT	-0.249
CGAAACAA	0.293
AAGAGCGA	-0.165
GCAATCCA	0.0488
GAAACTCA	0.231
CGGATAAG	0.217
CGTGGCCC	-0.147
AATCTCGA	0.0755
CGACTGCG	-0.121
GGGGTGCA	-0.136
ACCATATA	0.109
ACTCGGAA	0.341
TTCAGCAA	0.0984

Given as comma-separated lines: part of the list above
Sequence,PBM E-score
AAAAAGGC,0.121
GACTTGTA,-0.0964
AGACACGC,-0.0415
CGGATAAG,0.217
AATCTCGA,0.0755

Later entries:

Sequence	PBM E-score
ACAACCGC	0.116
TATCGGCA	0.213
CCCCAATC	-0.221
GGGCCCAC	-0.169
ACCGCTCA	0.0506
ATTTCGAC	-0.128
AATTTGAT	0.0532
CGTCGCTC	-0.0648
CGGGAGTA	0.199
GCAACAGC	-0.0717
ATGAGTAG	0.014
ACGTTGTC	-0.161
CGAGACAG	0.0103
GAAAGTTA	0.174
GACCTATC	-0.0806
CATGAGCG	-0.173
GCCCTAGA	-0.261
AATAAACT	0.163
AAGCACGC	0.0088
